Test results as given in EP4437048B1, “ENERGY CURABLE INK, COATING AND PRIMER COMPOSITIONS CONTAINING HIGHLY ALKOXYLATED GLYCEROL ACRYLATES FOR RETORT PACKAGING APPLICATIONS” (Sun Chemical B.V., priority 2022, dated 2024).

Assay: Set-off migration test (targeted analysis of acrylates migrating from printed stacks into ethanol)
Conditions: 3-layer stack (white, cyan, OPV) on aluminium, UV cured; 40°C for 10 days; EU model

| Substance | Migration results of the targeted analysis, Stack made of PO3-GPTA containing materials | Migration results of the targeted analysis, Stack made of PO6-TMPTA containing materials | Migration results of the targeted analysis, Stack made of PO9-GPTA containing materials |
| --- | --- | --- | --- |
| Propoxylated Glycerol Triacrylate [PO3-GPTA] | 230 ppb | <10 ppb |  |
| Propoxylated Glycerol Triacrylate [PO9-GPTA] |  |  | <10 ppb |
